Laboratory results from patent publication US20220403031A1.
These are yes or no findings as the source states them, for the method shown. Some entries that bind do so weakly or less than the wild type.

Amino acid sequences for entries named in this document (tags omitted). A change or cut given only in a name is not applied to a line headed by its entry. Chains listed by the source or under a name are the forms on record and can include a tag or linker.
cynomolgus monkey PD-L1 on 293F cells (W315-293F.cynoPro1.2A2) (G7PSE7, form named): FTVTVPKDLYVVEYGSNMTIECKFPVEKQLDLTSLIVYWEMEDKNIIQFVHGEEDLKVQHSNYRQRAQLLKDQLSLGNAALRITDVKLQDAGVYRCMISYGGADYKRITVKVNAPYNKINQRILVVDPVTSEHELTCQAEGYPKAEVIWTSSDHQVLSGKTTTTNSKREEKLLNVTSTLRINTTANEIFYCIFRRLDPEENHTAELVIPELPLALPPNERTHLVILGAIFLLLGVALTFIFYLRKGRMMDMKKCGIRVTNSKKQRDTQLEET

How the values were obtained:
[1] = target: cynomolgus monkey PD-L1 on 293F cells (W315-293F.cynoPro1.2A2) (cynomolgus monkey) (UniProt G7PSE7); assay: FACS affinity on PD-L1 cells
[2] = target: cynomolgus monkey PD-L1 on 293F cells (W315-293F.cynoPro1.2A2) (cynomolgus monkey) (UniProt G7PSE7); assay: FACS on cynomolgus PD-L1 293F cells

binding [1]: binds | binding [2]: binds
B1: AP3R2-1A3-z12-hIgG1 (Fc fusion, not shown: a dimerising Fc or GST)
chain: EVQLVESGGGLVQPGGSLRLSCAASGHFSNLAVNWFRQAPGKERELVAGILWSGGSTFYADSVKGRFTISRGNAENMLYLQMNSLRAEDTAVYYCNTGTNWGQGTLVTVSS
